These are yes or no findings as the source states them, for the method shown. In cells and extracts the contact can be indirect. Some binding calls cover weakened binding; strength is not graded here.

Protein sequences, listed by entry. Tags and fused reporters are not part of them.
UniProt Q9UKV8: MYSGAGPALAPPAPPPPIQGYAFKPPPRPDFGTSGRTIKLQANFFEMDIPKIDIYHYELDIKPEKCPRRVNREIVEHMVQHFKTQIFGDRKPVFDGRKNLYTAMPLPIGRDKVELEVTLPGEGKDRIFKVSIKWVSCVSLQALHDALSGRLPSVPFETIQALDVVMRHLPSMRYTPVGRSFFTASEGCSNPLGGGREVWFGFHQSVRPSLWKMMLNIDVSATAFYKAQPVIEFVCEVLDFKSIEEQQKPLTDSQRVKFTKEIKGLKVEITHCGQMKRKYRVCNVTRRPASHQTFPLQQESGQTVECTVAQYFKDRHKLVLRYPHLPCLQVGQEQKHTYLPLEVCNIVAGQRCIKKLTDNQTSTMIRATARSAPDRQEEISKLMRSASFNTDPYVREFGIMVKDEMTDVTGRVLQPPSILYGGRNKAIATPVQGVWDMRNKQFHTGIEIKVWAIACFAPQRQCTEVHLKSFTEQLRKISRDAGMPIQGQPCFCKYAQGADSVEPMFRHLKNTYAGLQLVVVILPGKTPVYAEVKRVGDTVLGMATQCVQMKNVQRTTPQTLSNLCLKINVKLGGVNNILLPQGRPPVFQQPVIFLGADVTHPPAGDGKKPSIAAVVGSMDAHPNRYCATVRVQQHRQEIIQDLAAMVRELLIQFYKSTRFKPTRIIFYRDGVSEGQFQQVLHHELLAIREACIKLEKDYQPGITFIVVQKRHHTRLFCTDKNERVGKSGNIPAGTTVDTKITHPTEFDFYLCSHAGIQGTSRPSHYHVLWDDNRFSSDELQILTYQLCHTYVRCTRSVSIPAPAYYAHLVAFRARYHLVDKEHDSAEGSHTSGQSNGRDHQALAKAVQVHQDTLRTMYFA

For the assay, the target named is Argonaute 2 (Ago2) (human (endogenous in glioma cells)) (UniProt Q9UKV8). Put plainly: co-IP; IP with either IgG (control), AGO2, SART3 or PRPF8 antibodies from glioma cells, followed by Western blotting; endogenous proteins. (In western blotting, separated proteins are transferred to a membrane and probed.)

B1: SART3, spliceosome-associated factor 3 (protein, UniProt Q15020 1-963)
chain: MATAAETSASEPEAESKAGPKADGEEDEVKAARTRRKVLSRAVAAATYKTMGPAWDQQEEGVSESDGDEYAMASSAESSPGEYEWEYDEEEEKNQLEIERLEEQLSINVYDYNCHVDLIRLLRLEGELTKVRMARQKMSEIFPLTEELWLEWLHDEISMAQDGLDREHVYDLFEKAVKDYICPNIWLEYGQYSVGGIGQKGGLEKVRSVFERALSSVGLHMTKGLALWEAYREFESAIVEAARLEKVHSLFRRQLAIPLYDMEATFAEYEEWSEDPIPESVIQNYNKALQQLEKYKPYEEALLQAEAPRLAEYQAYIDFEMKIGDPARIQLIFERALVENCLVPDLWIRYSQYLDRQLKVKDLVLSVHNRAIRNCPWTVALWSRYLLAMERHGVDHQVISVTFEKALNAGFIQATDYVEIWQAYLDYLRRRVDFKQDSSKELEELRAAFTRALEYLKQEVEERFNESGDPSCVIMQNWARIEARLCNNMQKARELWDSIMTRGNAKYANMWLEYYNLERAHGDTQHCRKALHRAVQCTSDYPEHVCEVLLTMERTEGSLEDWDIAVQKTETRLARVNEQRMKAAEKEAALVQQEEEKAEQRKRARAEKKALKKKKKIRGPEKRGADEDDEKEWGDDEEEQPSKRRRVENSIPAAGETQNVEVAAGPAGKCAAVDVEPPSKQKEKAASLKRDMPKVLHDSSKDSITVFVSNLPYSMQEPDTKLRPLFEACGEVVQIRPIFSNRGDFRGYCYVEFKEEKSALQALEMDRKSVEGRPMFVSPCVDKSKNPDFKVFRYSTSLEKHKLFISGLPFSCTKEELEEICKAHGTVKDLRLVTNRAGKPKGLAYVEYENESQASQAVMKMDGMTIKENIIKVAISNPPQRKVPEKPETRKAPGGPMLLPQTYGARGKGRTQLSLLPRALQRPSAAAPQAENGPAAAPAVAAPAATEAPKMSNADFAKLFLRK
Consider B1, for which the binding entry was “binds”.

The record behind these values is paper PMC8760648.
